Experimental findings from publication PMC7819943, “Rice protein-binding microarrays: a tool to detect cis-acting elements near promoter regions in rice” are described below.

Some of the results follow.

The assay concerns the target T1, OsSMF1 (Oryza sativa, UniProt Q6ZLB0 1-436).
T1 sequence: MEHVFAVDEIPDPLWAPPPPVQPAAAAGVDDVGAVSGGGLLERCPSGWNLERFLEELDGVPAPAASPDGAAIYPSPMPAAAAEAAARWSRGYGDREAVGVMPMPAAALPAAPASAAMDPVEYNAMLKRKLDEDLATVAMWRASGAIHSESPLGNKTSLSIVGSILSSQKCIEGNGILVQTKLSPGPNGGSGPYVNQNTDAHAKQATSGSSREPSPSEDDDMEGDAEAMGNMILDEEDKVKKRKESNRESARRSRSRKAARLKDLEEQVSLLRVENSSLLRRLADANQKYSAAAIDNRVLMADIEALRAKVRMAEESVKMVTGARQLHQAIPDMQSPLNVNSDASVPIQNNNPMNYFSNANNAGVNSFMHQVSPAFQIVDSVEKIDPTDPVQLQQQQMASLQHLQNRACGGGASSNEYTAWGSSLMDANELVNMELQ
As to the kind of experiment: protein-binding microarray (RPBM); PBS, 2% BSA, 51.3 ng/ul salmon testes DNA, 50 uM zinc acetate, 200 nM TF, 25 C, 1 h; high values mean tight binding. To be noted: protein: recombinant; tags: N-terminal polyhistidine and DsRed monomer fusion (pET32a); chain copies: 2; label: CyDye5-dUTP incorporated in the synthesized complementary strand; 3' TTTTT single-stranded linker to array surface; dsDNA, one strand shown. Put shortly:
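Transcription factors, each fused N-terminally to a polyhistidine tag and DsRed, were expressed in E. coli BL21-CodonPlus and purified on Ni–NTA. A custom Agilent array was made double-stranded by primer extension with Cy5-dUTP and blocked with 2% BSA. It was incubated with 200 nM protein in PBS, 2% BSA, salmon testes DNA and 50 µM zinc acetate at 25 °C for 1 h, then washed. The binding signal is per-feature fluorescence intensity (arbitrary units) read on an Axon 4000B scanner.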
As to “TCCGATGGATCCTTTTGTTGCGTTGTTGTCAACATTGCCACGGAGTCACCTAGTGCAG”, the binding signal is 4500 fluorescence intensity (a.u.).

In the case of “ACTTGCCCAACACATGAGCCTACGTGTAACATACTAGATTCGGAGTCACCTAGTGCAG”, the binding signal is 4780 fluorescence intensity (a.u.).

Turning to “CTACTTTATCCAAGCCTCAGCTGATGAAGAGGTTCAGAGACGGAGTCACCTAGTGCAG”, the binding signal is 3710 fluorescence intensity (a.u.).

Turning to “AACAACTCACTTGTTGACAAAGCAAGCCCTACAGGTCACTCGGAGTCACCTAGTGCAG”, the binding signal is 5780 fluorescence intensity (a.u.).

On to “CATGACTGCATCGATCTATTCAACAGCTATAAATCCGAGGCGGAGTCACCTAGTGCAG”, for which the binding signal was 3250 fluorescence intensity (a.u.).

As to “AAAATGGGTAATATTTCCACTTGGGGCCAAACCTGAAACACGGAGTCACCTAGTGCAG”, the binding signal is 3170 fluorescence intensity (a.u.).

With “GCGTGCGTGTGCGTGTCCACCCTGATCGCCGTTGGATCTCCGGAGTCACCTAGTGCAG”, the binding signal was 4190 fluorescence intensity (a.u.).

Turning to “TGGATTCCTTCTCGCTCCCTCTCCACGTCGCCTATAAATCCGGAGTCACCTAGTGCAG”, the binding signal was 6960 fluorescence intensity (a.u.).

Take “AGCAGCTGACGTTCGGAAGCTACTGACTGACAAAGTTCCACGGAGTCACCTAGTGCAG”: the binding signal was 3560 fluorescence intensity (a.u.).

As to “TGATCCTGCTGTCGAACGTGACGTGGCTGCTCTGGTCCATCGGAGTCACCTAGTGCAG”, the binding signal is 27400 fluorescence intensity (a.u.).

Take “GAGGTGACGAGTTTTACGACGCGCTTCTCGTTCGTCATCACGGAGTCACCTAGTGCAG”: the binding signal is 4190 fluorescence intensity (a.u.).

As for “CGTTGTTCTGCTTAGTACTGGTTGGAAAGGTGACAAAGATCGGAGTCACCTAGTGCAG”, the binding signal is 3380 fluorescence intensity (a.u.).

As for “CCTCTCCATCGCCGCATTGCTCGCCACCCCGACGACGACGCGGAGTCACCTAGTGCAG”, the binding signal is 3170 fluorescence intensity (a.u.).

Consider “ACCGCCATGTAGGTGCCACGTCATCGCCACGTGGAACGAACGGAGTCACCTAGTGCAG”, for which the binding signal is 32700 fluorescence intensity (a.u.).

Consider “CCCCACCACCTCATCGATCCGCGCCACCACCCAACCCACCCGGAGTCACCTAGTGCAG”, for which the binding signal is 4250 fluorescence intensity (a.u.).

With “CCATACCCGTCCGTGTCACGGAGACCGCCACCGACCCCACCGGAGTCACCTAGTGCAG”, the binding signal was 3380 fluorescence intensity (a.u.).

Regarding “GAGAAAGGGTGAGGAGGAGAGAGGGTGATGACGTGGCCAGCGGAGTCACCTAGTGCAG”, the binding signal is 24400 fluorescence intensity (a.u.).

Regarding “TAGCTTGGGAACTGCTAGTTGCAGTGGATCCACCTGGGCACGGAGTCACCTAGTGCAG”, the binding signal is 3580 fluorescence intensity (a.u.).

Consider “TTTTCTGGGGTTCACATCGTTTATCATGATGACACTACCACGGAGTCACCTAGTGCAG”, for which the binding signal is 4940 fluorescence intensity (a.u.).

As for “GGACATAATCCCTGCGGTTCCATAATTCTTGACGTCCTTACGGAGTCACCTAGTGCAG”, the binding signal was 3400 fluorescence intensity (a.u.).

For the sequence “GGAGGCTAACATGTGGGGCCCACGTGAGTCCCACGCTTACCGGAGTCACCTAGTGCAG”, the binding signal is 4070 fluorescence intensity (a.u.).

On to “ATAGCATCCAATTAGATTGTTGACATCCGGTTGAATAGAACGGAGTCACCTAGTGCAG”, for which the binding signal was 3290 fluorescence intensity (a.u.).

For the sequence “GGTGGAGACGCCGGAGAACAGTCAGCTTGGAGGCCGTGCGCGGAGTCACCTAGTGCAG”, the binding signal is 3170 fluorescence intensity (a.u.).

“GAAGAATCGGCCCAACGACCAAGAGGGAGTCAAAATAGACCGGAGTCACCTAGTGCAG”: the binding signal is 22600 fluorescence intensity (a.u.).

Turning to “TGATGCTACTTGTGCAATACTGCAGTTTACACTTAAATTGCGGAGTCACCTAGTGCAG”, the binding signal was 3350 fluorescence intensity (a.u.).

With “CGAAAGTTATGGGCTTCAGCTTCACTGTACATTGGGTATGCGGAGTCACCTAGTGCAG”, the binding signal was 3520 fluorescence intensity (a.u.).

In the case of “GACGGCGGTGCACGTTGGCCAACGTGCCCAGACGCTTCGACGGAGTCACCTAGTGCAG”, the binding signal was 3180 fluorescence intensity (a.u.).

As for “GCGCGGCAGTGGATGTGGTTCGCGCCGCGTGGCGGGCCATCGGAGTCACCTAGTGCAG”, the binding signal was 6120 fluorescence intensity (a.u.).

Take “ACCGTCGTCAGCAACGCCGCTACTGCCACTGCAATTGCCGCGGAGTCACCTAGTGCAG”: the binding signal is 3540 fluorescence intensity (a.u.).

Take “GGAAATAGAGAAGAGGCTGACGTGGCATGCTGACATGTGGCGGAGTCACCTAGTGCAG”: the binding signal was 17300 fluorescence intensity (a.u.).

“ATTTCACGCCGATCTGTGATATATCCGAGTCCTAGTGGACCGGAGTCACCTAGTGCAG”: the binding signal is 3150 fluorescence intensity (a.u.).

Take “CGCGGCAGATCCGCTGGTTGTGGCGGCGTCAGCGGTAGCCCGGAGTCACCTAGTGCAG”: the binding signal is 4030 fluorescence intensity (a.u.).

“GGGCATTGTGGAACCAGAGTTGATGACGAACCTATGTAGTCGGAGTCACCTAGTGCAG”: the binding signal is 4280 fluorescence intensity (a.u.).

“ATGTTAGAACACCTTCCTCTCCTGTATCCGTGGAGCAGCTCGGAGTCACCTAGTGCAG”: the binding signal is 3550 fluorescence intensity (a.u.).

Turning to “CATTGATGAACTTGACTTAATTAACGTGCACGTACCTTAACGGAGTCACCTAGTGCAG”, the binding signal was 3440 fluorescence intensity (a.u.).

In the case of “AGGGGAAGCAGTTTGCCAAATTTTACGGAGCAAACTCAAACGGAGTCACCTAGTGCAG”, the binding signal is 23800 fluorescence intensity (a.u.).

“GTGGCGCGCTACAACGTGCCGCTCTACGTGACGTGGGAGACGGAGTCACCTAGTGCAG”: the binding signal was 7560 fluorescence intensity (a.u.).

With “ATGGGTTGTGCTGTTCTAGCTTCTATACGTGTCGAATCATCGGAGTCACCTAGTGCAG”, the binding signal is 5280 fluorescence intensity (a.u.).

Take “GGCCGCTGTAGCGTGGGTGAGCGGGCCCGATCTGAGGTGGCGGAGTCACCTAGTGCAG”: the binding signal is 3650 fluorescence intensity (a.u.).

Take “TGGCACATTCTCATCGTATTTTCTTGTTGCTCTATGTATGCGGAGTCACCTAGTGCAG”: the binding signal is 3180 fluorescence intensity (a.u.).

For the sequence “TTGACACTTATGCCCCTGCCACCTCACTGCAACCATGGTGCGGAGTCACCTAGTGCAG”, the binding signal was 6340 fluorescence intensity (a.u.).

With “CGCCTTCCTCCCCACATCACCGCGGCTGCGCCCCAGTCCCCGGAGTCACCTAGTGCAG”, the binding signal is 4020 fluorescence intensity (a.u.).
